Data as given in patent US11760889B2, “Unsaturated fatty alcohol derivatives from natural oil metathesis” (priority 2012, dated 2023).

How the values were obtained:
[1] = Personal care cleansing: mechanical shake foam test; settings: 0.2% total surfactant actives, 25° C. tap water
[2] = Specialty foamer (gypsum): foam stability, drainage method; design: key to Rating: These compositions are identified as “good” performers as gypsum foam destabilizers; settings: 342 ppm hard water; for Liquid Volume (mL) vs. Drain Time (min): 0.4 wt. % active; for Rating: potential foamers for gypsum
[3] = Agricultural dispersant screening (sedimentation of pesticide powder in hard water); design: key to Sedimentation results at 1 h: Trace of sediment=“Tr”; flocked is also abbreviated as “FI.”
[4] = Emulsion polymerization surfactant screen; settings: surfactant level in EP 0.50%
Description: A reaction kettle is charged with sodium bicarbonate (0.50 g), water (225 g), and seed latex (30 g) and the mixture is heated to and held at 83° C. under nitrogen with stirring at 200 rpm. […] Methyl methacrylate (255 g), butyl acrylate (235 g), and methacrylic acid (10 g) are combined in an Erlenmeyer flask and mixed. […] Separately, two other mixtures are prepared: an initiator shot mixture of ammonium persulfate (1.0 g) in water (20 g), and a cofeed mixture of ammonium persulfate (2.70 g), sodium bicarbonate (1.50 g), and water (75 g); the total amount of initiator used is 0.74% based on monomers. The initiator shot is charged to the 83° C. reaction kettle dropwise over 1 min, then held for 10 min. The monomer emulsion is then fed to the kettle at 2.1 mL/min. for 10 min. The feed rate of the monomer emulsion is increased to 4.2 mL/min., and the cofeed mixture is started at 0.37 mL/min. Total addition time is 3 h, during which particle size and temperature are monitored. After addition of the monomer emulsion is complete, a water wash (50 g) is started, and heating at 83° C. continues for 1 h. The product is cooled. The pH is adjusted to 7.5 with dilute ammonium hydroxide solution. A preservative is added, and the mixture is filtered.

[5] = Laundry detergents: evaluation as a primary anionic surfactant (soil removal index); settings: versus Steol CS-370
[6] = Chlorothalonil, test water 342 ppm
[7] = Chlorothalonil, test water 1000 ppm
[8] = Imidacloprid, test water 342 ppm
[9] = Imidacloprid, test water 1000 ppm
[10] = Tebuconazole, test water 342 ppm
[11] = Tebuconazole, test water 1000 ppm

Compound: sodium laureth sulfate [C4, reference compound]
- Foam Height, 5 min ([1]; Castor oil added): 350 mL and 340 mL
- Foam Height, initial ([1]; Castor oil added): 350 mL and 340 mL
- Foam Height, 5 min ([1]; No oil added): 440 mL and 450 mL and 430 mL
- Foam Height, initial ([1]; No oil added): 440 mL and 450 mL and 430 mL

Compound: C=CCCCCCCCCOS(=O)(=O)[O-].[Na+] [A10-3]
- Liquid Volume (mL) vs. Drain Time (min) ([2]; drain time 0.5 min): 3.00 mL
- Liquid Volume (mL) vs. Drain Time (min) ([2]; drain time 1.0 min): 5.75 mL
- Liquid Volume (mL) vs. Drain Time (min) ([2]; drain time 1.5 min): 8.00 mL
- Liquid Volume (mL) vs. Drain Time (min) ([2]; drain time 2.0 min): 10.25 mL
- Liquid Volume (mL) vs. Drain Time (min) ([2]; drain time 2.5 min): 12.50 mL
- Liquid Volume (mL) vs. Drain Time (min) ([2]; drain time 3.0 min): 14.50 mL
- Liquid Volume (mL) vs. Drain Time (min) ([2]; drain time 3.5 min): 16.00 mL
- Liquid Volume (mL) vs. Drain Time (min) ([2]; drain time 4.0 min): 17.75 mL
- Rating [2]: good

Compound: 3 Mole Ethoxylated C12 Alcohol, Sodium Sulfate [A12-9]
- Sedimentation results at 1 h ([3]; Atrazine, test water 342 ppm): 0.25 mL
- Sedimentation results at 24 h ([3]; Atrazine, test water 342 ppm): 1 to 1.75 mL
- Sedimentation results at 1 h ([3]; Atrazine, test water 1000 ppm): 0.25 mL
- Sedimentation results at 24 h ([3]; Atrazine, test water 1000 ppm): 1.25 to 1.75 mL
- Sedimentation results at 1 h [3, 6]: 0.5 to 0.75 mL
- Sedimentation results at 24 h [3, 6]: 1.25 to 1.5 mL
- Sedimentation results at 1 h [3, 7]: 0.5 mL
- Sedimentation results at 24 h [3, 7]: 1.25 to 1.5 mL
- Sedimentation results at 1 h ([3]; Diuron, test water 342 ppm): 0.5 mL
- Sedimentation results at 24 h ([3]; Diuron, test water 342 ppm): Fl.
- Sedimentation results at 1 h ([3]; Diuron, test water 1000 ppm): flocked
- Sedimentation results at 1 h [3, 8]: 1.75 to 2 mL
- Sedimentation results at 24 h [3, 8]: Fl.
- Sedimentation results at 1 h [3, 9]: flocked
- Sedimentation results at 1 h [3, 10]: Tr
- Sedimentation results at 24 h [3, 10]: 1.75 to 2.0 mL
- Sedimentation results at 1 h [3, 11]: flocked
- Foam Height, 5 min ([1]; Castor oil added): 130 mL
- Foam Height, initial ([1]; Castor oil added): 300 mL
- Foam Height, 5 min ([1]; No oil added): 290 mL
- Foam Height, initial ([1]; No oil added): 440 mL

Compound: 1 Mole Ethoxylated C12 Alcohol, Ammonium Sulfate [A12-5]
- Sedimentation results at 1 h ([3]; Atrazine, test water 342 ppm): 0.25 mL
- Sedimentation results at 24 h ([3]; Atrazine, test water 342 ppm): 1 to 1.25 mL
- Sedimentation results at 1 h ([3]; Atrazine, test water 1000 ppm): 0.25 mL
- Sedimentation results at 24 h ([3]; Atrazine, test water 1000 ppm): 1.0 mL
- Sedimentation results at 1 h [3, 6]: 0.25 mL
- Sedimentation results at 24 h [3, 6]: 1.0 to 1.25 mL
- Sedimentation results at 1 h [3, 7]: 0.25 to 0.5 mL
- Sedimentation results at 24 h [3, 7]: 1.0 to 1.25 mL
- Sedimentation results at 1 h ([3]; Diuron, test water 342 ppm): 0.5 to 0.75 mL
- Sedimentation results at 24 h ([3]; Diuron, test water 342 ppm): 1.0 to 1.25 mL
- Sedimentation results at 1 h ([3]; Diuron, test water 1000 ppm): 0.5 mL
- Sedimentation results at 24 h ([3]; Diuron, test water 1000 ppm): 0.75 to 1.0 mL
- Sedimentation results at 1 h [3, 8]: 0.5 mL
- Sedimentation results at 24 h [3, 8]: 1.0 to 1.5 mL
- Sedimentation results at 1 h [3, 9]: 1.0 mL
- Sedimentation results at 24 h [3, 9]: Fl.
- Sedimentation results at 1 h [3, 10]: Tr
- Sedimentation results at 24 h [3, 10]: 0.5 to 0.75 mL
- Sedimentation results at 1 h [3, 11]: Tr
- Sedimentation results at 24 h [3, 11]: 1 mL
- Foam Height, 5 min ([1]; Castor oil added): 350 mL
- Foam Height, initial ([1]; Castor oil added): 400 mL
- Foam Height, 5 min ([1]; No oil added): 420 mL
- Foam Height, initial ([1]; No oil added): 420 mL

Compound: 1 Mole Ethoxylated C12 Alcohol, Sodium Sulfate [A12-6]
- Foam Height, 5 min ([1]; Castor oil added): 200 mL
- Foam Height, initial ([1]; Castor oil added): 400 mL
- Foam Height, 5 min ([1]; No oil added): 500 mL
- Foam Height, initial ([1]; No oil added): 500 mL

Compound: CCCCCCCCCCOS(=O)(=O)[O-].[Na+] [C5, sodium decyl sulfate, reference compound]
- Foam Height, 5 min ([1]; Castor oil added): 170 mL
- Foam Height, initial ([1]; Castor oil added): 170 mL
- Foam Height, 5 min ([1]; No oil added): 400 mL
- Foam Height, initial ([1]; No oil added): 400 mL

Compound: C12 Alcohol Sodium Sulfate [A12-3]
- Foam Height, 5 min ([1]; Castor oil added): 110 mL
- Foam Height, initial ([1]; Castor oil added): 310 mL
- Foam Height, 5 min ([1]; No oil added): 350 mL
- Foam Height, initial ([1]; No oil added): 350 mL
- Particle size (nm) ([4]; 0.5 h): 126 nm
- Particle size (nm) ([4]; 1.0 h): 153 nm
- Particle size (nm) ([4]; 2.0 h): 190 nm
- Particle size (nm) ([4]; Final): 208 nm
- coagulum (%) [4]: 0.08%

Compound: CCCCC=CCCCCCCCCOCCOCCOCCOS(=O)(=O)[O-].[Na+] (mixture of isomers) [A14-7, 3 Mole Ethoxylated C14 Alcohol, Sodium Sulfate]
- ΔSRI values ([5]; beef tallow (BT)): 0.5
- ΔSRI values ([5]; blood/ink/milk on cotton (EMPA 116)): 0.1
- ΔSRI values ([5]; blueberry on cotton (BC)): −0.5
- ΔSRI values ([5]; clay on cotton (CC)): 0.0
- ΔSRI values ([5]; clay on cotton/polyester (CCP)): 0.0
- ΔSRI values ([5]; cocoa on cotton (EMPA 112)): 0.6
- ΔSRI values ([5]; coffee on cotton (COFC)): −0.5
- ΔSRI values ([5]; dust sebum on cotton (DSC)): 0.2
- ΔSRI values ([5]; dust sebum on cotton/polyester (DSCP)): 0.2
- ΔSRI values ([5]; grass on cotton (GC)): 0.7
- ΔSRI values ([5]; make-up on cotton (EMPA 143)): 0.1
- ΔSRI values ([5]; red wine on cotton (RWC)): −0.4
- ΔSRI values ([5]; sebum tefo (ST)): 0.8

Compound: sodium laureth sulfate [C6, reference compound]
- Foam Height, 5 min ([1]; Castor oil added): 360 mL
- Foam Height, initial ([1]; Castor oil added): 360 mL
- Foam Height, 5 min ([1]; No oil added): 420 mL
- Foam Height, initial ([1]; No oil added): 420 mL

Compound: C=CCCCCCCCCOS(=O)(=O)O.N [A10-2]
- Liquid Volume (mL) vs. Drain Time (min) ([2]; drain time 0.5 min): 0.75 mL
- Liquid Volume (mL) vs. Drain Time (min) ([2]; drain time 1.0 min): 2.00 mL
- Liquid Volume (mL) vs. Drain Time (min) ([2]; drain time 1.5 min): 3.50 mL
- Liquid Volume (mL) vs. Drain Time (min) ([2]; drain time 2.0 min): 5.25 mL
- Liquid Volume (mL) vs. Drain Time (min) ([2]; drain time 2.5 min): 6.75 mL
- Liquid Volume (mL) vs. Drain Time (min) ([2]; drain time 3.0 min): 8.75 mL
- Liquid Volume (mL) vs. Drain Time (min) ([2]; drain time 3.5 min): 10.50 mL
- Liquid Volume (mL) vs. Drain Time (min) ([2]; drain time 4.0 min): 12.25 mL
- Rating [2]: good

Compound: CCCCC=CCCCCCCCCOS(=O)(=O)[O-].[Na+] (mixture of isomers) [A14-2, C14 alcohol sodium sulfate]
- Foam Height, 5 min ([1]; Castor oil added): 320 mL
- Foam Height, initial ([1]; Castor oil added): 322 mL
- Foam Height, 5 min ([1]; No oil added): 430 mL
- Foam Height, initial ([1]; No oil added): 430 mL

Compound: 3 Mole Ethoxylated C12 Alcohol, Ammonium Sulfate [A12-8]
- Foam Height, 5 min ([1]; Castor oil added): 130 mL
- Foam Height, initial ([1]; Castor oil added): 420 mL
- Foam Height, 5 min ([1]; No oil added): 180 mL
- Foam Height, initial ([1]; No oil added): 440 mL

Compound: C12 Alcohol Ammonium Sulfate [A12-2]
- Foam Height, 5 min ([1]; Castor oil added): 150 mL
- Foam Height, initial ([1]; Castor oil added): 310 mL
- Foam Height, 5 min ([1]; No oil added): 350 mL
- Foam Height, initial ([1]; No oil added): 390 mL

Several values for one entry are separate records, joined by “and”; a condition that tells them apart may be missing. Equal entries are not always repeated.
